Assay results: patent publication US5446130A, “Parathyroid hormone antagonists” (Mitsubishi Kasei Corporation, priority 1990, dated 1995)
Not every detail of the peptide structures is certain; ends, links or a residue may be inferred. Where a SMILES comes first, the peptide text is derived from it. The star is where a group is joined. Myristoyl = CCCCCCCCCCCCCC(=O)*

Tested on: output of cAMP produced by 5×10^-9 M hPTH (1-34) in cultured mouse osteoblast MC3T3-E1
Assay: Determination of PTH antagonism: inhibition of cAMP output induced by hPTH (1-34) in cultured mouse osteoblast MC3T3-E1
Type: cell-based
Protocol: PTH antagonism of the PTHrP derivatives (I) of the present invention was determined on the basis of the output of cAMP, using cultured mouse osteoblast MC3T3-E1.
To a multiwell-culture plate of 12-well were inoculated 1×10^5 cells/well of the cultured cells, and the plate was incubated at 37° C. under 95% air-5% CO2 atmosphere for 3 days after addition of α-modified MEM containing 10% semi-fetal bovine serum as a medium. Then, the medium was exchanged with α-modified MEM containing 1% bovine serum albumin and the cultured cells were incubated for 6 hours. The medium was replaced by α-modified MEM containing various concentrations of the compound of the present invention, 5×10^-9 M hPTH (1-34), 1% bovine serum albumin and 1 mM isobutylmethylxanthin, and the mixture was incubated for 1 hour. The medium was separated from the cells, and the medium was used as a sample for assaying cAMP. The cells were shaken with 90% n-propyl alcohol to extract cAMP according to Yamaguchi et al., J. Biol. Chem., 262, 7711-7718 (1987) for preparing another sample.
Assay of cAMP was performed using a commercially available cAMP-radioimmunoassay kit. […] Compound numbers in the tables correspond to those in Table 2.

[1] = Table 4, 50% inhibition of cAMP output by 5×10^-9 M hPTH (1-34), ratio to control Compound No. 15 = 1

| Compound | IC50 Ratio (Table 3, 50% inhibition of cAMP output by 5×10^-9 M hPTH (1-34), ratio to control [Tyr34]-hPTH (3-34)-NH2 = 1) | IC50 Ratio [1] |
| --- | --- | --- |
| CC[C@H](C)[C@H](N)C(=O)N[C@@H](CCC(N)=O)C(=O)N[C@@H](CC(C)C)C(=O)N[C@@H](CCSC)C(=O)N[C@@H](Cc1c[nH]cn1)C(=O)N[C@@H](CC(=O)O)C(=O)N[C@@H](CCCCN)C(=O)NCC(=O)N[C@@H](CCCCN)C(=O)N[C@@H](CO)C(=O)N[C@H](C(=O)N[C@@H](CCC(N)=O)C(=O)N[C@@H](CC(=O)O)C(=O)N[C@@H](CC(C)C)C(=O)N[C@@H](CCCNC(=N)N)C(=O)N[C@@H](CCCNC(=N)N)C(=O)N[C@@H](CCCNC(=N)N)C(=O)N[C@@H](Cc1ccccc1)C(=O)N[C@@H](Cc1ccccc1)C(=O)N[C@@H](CC(C)C)C(=O)N[C@@H](Cc1c[nH]cn1)C(=O)N[C@@H](Cc1c[nH]cn1)C(=O)N[C@@H](CC(C)C)C(=O)N[C@H](C(=O)N[C@@H](C)C(=O)N[C@@H](CCC(=O)O)C(=O)N[C@H](C(=O)N[C@@H](Cc1c[nH]cn1)C(=O)N[C@H](C(=O)N[C@@H](C)C(N)=O)[C@@H](C)O)[C@@H](C)CC)[C@@H](C)CC)[C@@H](C)CC [Compound No. 15] | 0.017 | 1 |
| CCCCCCCCCCCCCC(=O)NCCCC[C@H](NC(C)=O)C(=O)N[C@@H](CCC(N)=O)C(=O)N[C@@H](CC(C)C)C(=O)N[C@@H](CCSC)C(=O)N[C@@H](Cc1c[nH]cn1)C(=O)N[C@@H](CC(=O)O)C(=O)N[C@@H](CCCCN)C(=O)NCC(=O)N[C@@H](CCCCN)C(=O)N[C@@H](CO)C(=O)N[C@H](C(=O)N[C@@H](CCC(N)=O)C(=O)N[C@@H](CC(=O)O)C(=O)N[C@@H](CC(C)C)C(=O)N[C@@H](CCCNC(=N)N)C(=O)N[C@@H](CCCNC(=N)N)C(=O)N[C@@H](CCCNC(=N)N)C(=O)N[C@@H](Cc1ccccc1)C(=O)N[C@@H](Cc1ccccc1)C(=O)N[C@@H](CC(C)C)C(=O)N[C@@H](Cc1c[nH]cn1)C(=O)N[C@@H](CCCCN)C(=O)N[C@@H](CC(C)C)C(=O)N[C@H](C(=O)N[C@@H](C)C(=O)N[C@@H](CCC(=O)O)C(=O)N[C@H](C(=O)N[C@@H](Cc1c[nH]cn1)C(=O)N[C@H](C(=O)N[C@@H](C)C(N)=O)[C@@H](C)O)[C@@H](C)CC)[C@@H](C)CC)[C@@H](C)CC [Compound No. 25] (Ac-K(Myristoyl)QLMHDKGKSIQDLRRRFFLHKLIAEIHTA-NH2) | – | 0.343 |
